Results: PubChem BioAssay AID1508600 (Functional Genomics Laboratory (NCATS/FGL), 2020)
Hit rate of the full screen: of about 53,000 sequences, about 3,700 (7%) were called active.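 How the source made its calls: active means gene knockdowns whose robust z-score for IL-1 alpha signal is at least 2 or at most -2, so actives lie on both sides; inactive means the rest.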 The list shows a part of the results.

test: Components of the Cytosolic LPS Sensing Pathway: Gene Identification via Genome-wide siRNA Screen; conditions: RAW264.7 macrophages, IL-1a HTRF, actives lie on both sides, screened at 100 nM (by protocol), cells primed 5 h with Pam3CSK4 first;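 further: robust z of the log signal after scaling to non-targeting control siRNA wells of the plate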
Method in brief: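 Knockdown: 100 nM siRNA, 48h, RAW264.7. Stimulation: Pam3CSK4 5 h, then LipidA via TransIT-TKO 24 h. Output: supernatant IL-1a HTRF, negative-control-normalized, log robust z-score; viability by CellTiter-Glo.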

Question: Which z-score does the source give for CCAGGAUUGGACUGAUAGUTT against Hoga1 here?
Answer: inactive: 0.815

Question: Which z-score does the source give for CGACAAGGUAUGGAAAGCUTT against Tshz2 here?
Answer: inactive: -1.8

Question: For GGUUAAUGGGAAACUCUGCTT against Pias3, which z-score is on record?
Answer: inactive: 0.327

Question: Which z-score does the source give for “GGAAGAUUCAUUCCAAAGATT against A430090L17Rik” here?
Answer: inactive: 0.891

Question: Which z-score does the source give for GCUGAUUGCUUCACCUCAUTT against Sall2 here?
Answer: inactive: -0.444

Question: With GGAACAAAGAGAAGUGCAGTT against Ecm1 as the sequence, how does the z-score read?
Answer: inactive: 1.19

Question: For GGCUGCUGUGAAAUCAGAATT against Shisa7, which z-score is on record?
Answer: inactive: -0.0213

Question: Which z-score does the source give for GCUCAUUGACAGUAUCAGCTT against Shroom2 here?
Answer: inactive: 0.433

Question: With GGGAUAAAGAGAGACCCAATT against Flywch1 as the sequence, how does the z-score read?
Answer: inactive: 0.889

Question: Which z-score does the source give for CGGUAACUAUGCAAAUUCATT against Ckap4 here?
Answer: inactive: 1.43

Question: With GGUGUGCUGAGAAAAAAUATT against Acot10 as the sequence, how does the z-score read?
Answer: inactive: 0.847

Question: With GGGCAUAUUUGGAAUCUGATT against Rtn4 as the sequence, how does the z-score read?
Answer: active: 2.51

Question: With GGUCACCUGGUGUCAAUACTT against Reg2 as the sequence, how does the z-score read?
Answer: inactive: -0.968

Question: Which z-score does the source give for CCCUCAGUUGGUCACAUGUTT against Mpc1 here?
Answer: inactive: -0.182

Question: For CCUGAAUGACAACUAUAUCTT against Glt8d2, which z-score is on record?
Answer: inactive: 0.0418

Question: For CCAUUAUGGGAGGAAGAUUTT against Clvs2, which z-score is on record?
Answer: inactive: 0.969

Question: Which z-score does the source give for CCACCAAUUUGUAAGUAUATT against Lipi here?
Answer: inactive: -0.737

Question: Which z-score does the source give for CCUCGUAUUAUCAUGUGAATT against Gmppb here?
Answer: inactive: 1.34

Question: With GCUAUGGUAGCUGAUAACATT against Rell1 as the sequence, how does the z-score read?
Answer: inactive: 1.21

Question: With GGAACUUACAUGAAUUCCATT against Slco1a4 as the sequence, how does the z-score read?
Answer: inactive: -0.229

Question: Which z-score does the source give for CCUAGUAGUUGACCAUAUATT against Dcdc5 here?
Answer: inactive: -1.32

Question: Which z-score does the source give for GGGACAACAUGGAUUCAAGTT against Sult1c2 here?
Answer: inactive: 0.685

Question: For GGCUAUUGAUUCCUAUUAGTT against Usp54, which z-score is on record?
Answer: inactive: -0.576

Question: For GGAUUGGUAGCUUAUGUGGTT against Hnrnpr, which z-score is on record?
Answer: inactive: -1.91

Question: For GCAAUGACAGAACAUACAGTT against Cts7, which z-score is on record?
Answer: inactive: 1.67

Question: Which z-score does the source give for GCAAGAAUCCUGGCUAUAUTT against Phb2 here?
Answer: inactive: 0.0195

Question: Which z-score does the source give for GGGUACAAUAUCCUUAAGUTT against Nfxl1 here?
Answer: inactive: 0.248

Question: For GGAGCAGCUUCUGCUUUCUTT against Senp1, which z-score is on record?
Answer: inactive: 1.78

Question: With GGAAGUUCGUUAUUAGGAUTT against Disp2 as the sequence, how does the z-score read?
Answer: inactive: -0.452

Question: Which z-score does the source give for GGAGAUGGUGGAAUUCUCUTT against Atp5a1 here?
Answer: inactive: -0.0311

Question: For GGAUUAUCCCGACUAUAUGTT against Tgds, which z-score is on record?
Answer: inactive: 0.139

Question: With GCGAUUAAGUCUGAAUUGUTT against Cd93 as the sequence, how does the z-score read?
Answer: inactive: 0.425

Question: With GGGAGAUUGCAUUUGGAGCTT against Olfr678 as the sequence, how does the z-score read?
Answer: inactive: 0.317

Question: With GGAGAGAUGUUUAUGAAUATT against Slc6a14 as the sequence, how does the z-score read?
Answer: inactive: -0.429

Question: With CCUUGGAAUUCAUCAACGGTT against Zfp943 as the sequence, how does the z-score read?
Answer: inactive: -0.335

Question: For GGCACACCACUACACCAUCTT against Syk, which z-score is on record?
Answer: inactive: -0.96

Question: Which z-score does the source give for GGAACAGACACAGACACAGTT against Phxr5 here?
Answer: inactive: -0.647

Question: With GGAUAUGGUUGGUCAAAAUTT against Cdh7 as the sequence, how does the z-score read?
Answer: inactive: 1.15

Question: With CCAAGGUUCCAAAACUGAUTT against Pglyrp4 as the sequence, how does the z-score read?
Answer: inactive: -0.102

Question: For GGUUGAGUGUUUGAAGUCATT against Slc38a11, which z-score is on record?
Answer: inactive: -1.9

Question: Which z-score does the source give for GCCUGUUGGGUGUUCUUCCTT against Olfr834 here?
Answer: inactive: -0.272

Question: With CCAAUAAGGCAUAUGUUUUTT against Scarb2 as the sequence, how does the z-score read?
Answer: inactive: -0.608

Question: For CCUCUUCGCAUCAACACUGTT against Car10, which z-score is on record?
Answer: inactive: -0.186

Question: Which z-score does the source give for GGUUGGAAAUGACUAAUAATT against Slco6c1 here?
Answer: inactive: -1.01

Question: Which z-score does the source give for GGCCAGGUACUAUACACAUTT against Tmem145 here?
Answer: inactive: 0.997

Question: Which z-score does the source give for CGAACUGCCUUCCUUAAUATT against H1f2 here?
Answer: inactive: -1.26

Question: For GGAGCUCGUUGACAAGAAGTT against Bpifb5, which z-score is on record?
Answer: inactive: 1.24

Question: With GGAAGAACUAACAUUUGAGTT against Myo9a as the sequence, how does the z-score read?
Answer: inactive: -0.289

Question: For “GGUUACAAUCUGAAGUGACTT against 4931429L15Rik”, which z-score is on record?
Answer: inactive: -1.07

Question: For GGCUUUAGGAAGAUCCUUGTT against Ilf2, which z-score is on record?
Answer: inactive: -0.538

Question: Which z-score does the source give for GGGUGCAAGGGCACCAAAATT against Wfdc15a here?
Answer: inactive: -0.267

Question: For GGAGAUCCUAGUGAAUGUGTT against Kcng4, which z-score is on record?
Answer: inactive: -0.441

Question: For GGUGAUGUCUCGGUACCCATT against Mvk, which z-score is on record?
Answer: inactive: -0.0733

Question: For CCAAUAAAAGUGCACACCUTT against Actb, which z-score is on record?
Answer: active: 2

Question: For GGCUCUAUCACUGAGUCACTT against Hsd17b14, which z-score is on record?
Answer: inactive: -0.0378

Question: For GCAUCAUGAGUCCCAUUCUTT against Olfr385, which z-score is on record?
Answer: inactive: -0.276

Question: Which z-score does the source give for GGCAUCUCCAAGAUGUUUCTT against Plekhg4 here?
Answer: inactive: -0.205

Question: Which z-score does the source give for GGCUGAAGAUUUACUUCUATT against Bbs9 here?
Answer: inactive: 0.267

Question: With CCAGAAGAGUACUGUUUUATT against Tpm4 as the sequence, how does the z-score read?
Answer: active: 2.17

Question: Which z-score does the source give for GGACUUAGGAGCCAAAAUUTT against Afg3l1 here?
Answer: inactive: 0.677

Question: For GGCUAUGCUGCCUACUACUTT against Bmp7, which z-score is on record?
Answer: active: -2.63

Question: With GGUAGAAGAGAGUAUCAACTT against Commd1 as the sequence, how does the z-score read?
Answer: inactive: 1.28

Question: For GGAAAUCCUUACGAUGCUGTT against Coprs, which z-score is on record?
Answer: inactive: 1.01

Question: With GGCUGUGUAAGGAAGGGCUTT against Hjv as the sequence, how does the z-score read?
Answer: inactive: 0.501

Question: Which z-score does the source give for GGAGUUAAAUUUAGAGAACTT against Shoc2 here?
Answer: inactive: -0.043

Question: Which z-score does the source give for GGUACCUUGCUUUUAUUUUTT against Rdh13 here?
Answer: inactive: 0.182

Question: For GGAAAUUGUUAAGCAGUGUTT against Zc3hav1, which z-score is on record?
Answer: inactive: -0.506

Question: With GGCAUACUCAUGGAAUAACTT against Selp as the sequence, how does the z-score read?
Answer: inactive: -0.244
